Laboratory results: PubChem BioAssay AID1259308 (NCATS, 2017)

Aim: 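Genes whose loss raises luciferase production in HEK293 cells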 (primary screen)
System: human HEK293 embryonic kidney cells stably expressing firefly luciferase (HEK-CMV-Luc2-Hygro)
Reagents: single siRNA against human genes, 0.8 pmol siRNA per well
Timing: 72 h
Read-out: 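Reporter luminescence and viable-cell signal on separate replicate plates, given as percent of non-targeting control and median/MAD z-scores, plus per-cell luciferase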
Scale: total luciferase, z-score and total luciferase, % of control: higher = more reporter protein produced; luciferase per cell, z-score: higher = more reporter output per viable cell; viable cells, % of control: higher = more viable cells
Rule for the call: 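An siRNA counts as active if its total luciferase robust z-score exceeds 3; genes with two or more such siRNAs out of three were retested with fresh siRNAs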
Meaning of the calls: active = raised luciferase; inactive = no rise
In all, the deposit lists about 59,000 reagents; shown is a random part of them. About 1,510 of all reagents (2.6%) count as active. 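Calls use total luciferase alone and ignore viability, so some active siRNAs may act by altering cell number.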 Unmarked entries are inactive. The numbers tell different reagents against one gene apart. Reagent sequences are not shown.

| gene | reagent | total luciferase, z-score | total luciferase, % of control | luciferase per cell, z-score | viable cells, % of control |
| --- | --- | --- | --- | --- | --- |
| G6PC1 (glucose-6-phosphatase catalytic subunit 1) | 1 | -0.893 | 64.1 | -0.527 | 82.3 |
| G6PC1 (glucose-6-phosphatase catalytic subunit 1) | 2 | -0.112 | 79.7 | -0.496 | 101 |
| G6PC1 (glucose-6-phosphatase catalytic subunit 1) | 3 | -0.921 | 63.6 | -0.862 | 89.1 |
| TRIM10 (tripartite motif containing 10) | 1 | 0.308 | 88 | 0.334 | 90.1 |
| TRIM10 (tripartite motif containing 10) | 2 | 1.03 | 102 | 1.12 | 85.1 |
| TRIM10 (tripartite motif containing 10) | 3 | -0.539 | 71.2 | -0.664 | 94.7 |
| CDKN2AIP (CDKN2A interacting protein) | 1 | 1.9 | 120 | 2.54 | 68.5 |
| CDKN2AIP (CDKN2A interacting protein) | 2 | -0.786 | 66.3 | -0.759 | 90.4 |
| CDKN2AIP (CDKN2A interacting protein) | 3 | -0.766 | 66.6 | -1.36 | 107 |
| GARIN2 (golgi associated RAB2 interactor family member 2) | 1 | 2.51 | 132 | 2.31 | 80.2 |
| GARIN2 (golgi associated RAB2 interactor family member 2) | 2 | 2.55 | 133 | 1.11 | 111 |
| GARIN2 (golgi associated RAB2 interactor family member 2) | 3 | -0.112 | 79.7 | 0.0184 | 88.6 |
| SEMA3A (semaphorin 3A) | 1 | 0.363 | 89.1 | 0.329 | 91.3 |
| SEMA3A (semaphorin 3A) | 2 | 0.888 | 99.6 | 0.109 | 108 |
| SEMA3A (semaphorin 3A) | 3 | 0.0129 | 82.1 | -0.762 | 112 |
| TMC6 (transmembrane channel like 6) | 1 | -0.524 | 71.5 | -0.528 | 91.8 |
| TMC6 (transmembrane channel like 6) | 2 | -1.28 | 56.5 | -1.25 | 87.8 |
| TMC6 (transmembrane channel like 6) | 3 | 1.22 | 106 | 0.549 | 103 |
| NAA16 (N-alpha-acetyltransferase 16, NatA auxiliary subunit) | 1 | 4.96 (active) | 181 | 3.26 | 85.5 |
| NAA16 (N-alpha-acetyltransferase 16, NatA auxiliary subunit) | 2 | 0.277 | 87.4 | -0.277 | 105 |
| NAA16 (N-alpha-acetyltransferase 16, NatA auxiliary subunit) | 3 | 0.848 | 98.8 | 0.47 | 97.5 |
| PTPN18 (protein tyrosine phosphatase non-receptor type 18) | 1 | -0.557 | 70.8 | -1.09 | 106 |
| PTPN18 (protein tyrosine phosphatase non-receptor type 18) | 2 | 1.02 | 102 | 1.43 | 78.4 |
| PTPN18 (protein tyrosine phosphatase non-receptor type 18) | 3 | 2.28 | 127 | 0.474 | 126 |
| CKS2 (CDC28 protein kinase regulatory subunit 2) | 1 | -0.541 | 71.1 | -0.382 | 87.9 |
| CKS2 (CDC28 protein kinase regulatory subunit 2) | 2 | 0.0551 | 83 | -0.425 | 104 |
| CKS2 (CDC28 protein kinase regulatory subunit 2) | 3 | -0.109 | 79.7 | -0.63 | 105 |
| ZDHHC16 (zDHHC palmitoyltransferase 16) | 1 | 0.681 | 95.4 | 0.295 | 98.7 |
| ZDHHC16 (zDHHC palmitoyltransferase 16) | 2 | 0.685 | 95.5 | 0.613 | 90.8 |
| ZDHHC16 (zDHHC palmitoyltransferase 16) | 3 | 0.603 | 93.9 | 1.23 | 76 |
| LOC401021 | 1 | -0.248 | 76.9 | 0.00507 | 85.9 |
| LOC401021 | 2 | 0.298 | 87.8 | -0.322 | 107 |
| LOC401021 | 3 | -1.99 | 42.4 | -2.92 | 102 |
| CYP4V2 (cytochrome P450 family 4 subfamily V member 2) | 1 | -0.634 | 69.3 | -0.591 | 90.5 |
| CYP4V2 (cytochrome P450 family 4 subfamily V member 2) | 2 | -1.43 | 53.4 | -1.94 | 99.4 |
| CYP4V2 (cytochrome P450 family 4 subfamily V member 2) | 3 | -0.592 | 70.1 | 1.07 | 59.2 |
| PAK1 (p21 (RAC1) activated kinase 1) | 1 | 0.643 | 94.7 | 0.659 | 88.9 |
| PAK1 (p21 (RAC1) activated kinase 1) | 2 | -0.339 | 75.2 | -0.416 | 93.7 |
| PAK1 (p21 (RAC1) activated kinase 1) | 3 | -0.458 | 72.8 | -0.744 | 98.9 |
| GPCPD1 (glycerophosphocholine phosphodiesterase 1) | 1 | -1.28 | 56.4 | -1.94 | 105 |
| GPCPD1 (glycerophosphocholine phosphodiesterase 1) | 2 | -0.423 | 73.5 | -0.603 | 96.2 |
| GPCPD1 (glycerophosphocholine phosphodiesterase 1) | 3 | 1.76 | 117 | 2.19 | 73.4 |
| OVOS1P (ovostatin 1, pseudogene) | 1 | -0.239 | 77.1 | -0.694 | 103 |
| OVOS1P (ovostatin 1, pseudogene) | 2 | 0.467 | 91.2 | 0.176 | 97.2 |
| OVOS1P (ovostatin 1, pseudogene) | 3 | -0.364 | 74.6 | -0.52 | 95.7 |
| P3H3 (prolyl 3-hydroxylase 3) | 1 | 0.331 | 88.5 | 0.173 | 94.5 |
| P3H3 (prolyl 3-hydroxylase 3) | 2 | -0.144 | 79 | -0.0441 | 89.3 |
| P3H3 (prolyl 3-hydroxylase 3) | 3 | 0.572 | 93.3 | 0.951 | 81.1 |
| TUBB (tubulin beta class I) | 1 | 1.79 | 117 | 1.82 | 81.3 |
| TUBB (tubulin beta class I) | 2 | 1.28 | 107 | 1.54 | 79.8 |
| TUBB (tubulin beta class I) | 3 | -0.295 | 76 | -0.0624 | 86.4 |
| POLR3E (RNA polymerase III subunit E) | 1 | -0.521 | 71.5 | -0.746 | 97.3 |
| POLR3E (RNA polymerase III subunit E) | 2 | 0.439 | 90.6 | 0.681 | 84.6 |
| POLR3E (RNA polymerase III subunit E) | 3 | -0.929 | 63.4 | -1.23 | 98.1 |
| TTC14 (tetratricopeptide repeat domain 14) | 1 | -0.238 | 77.2 | 0.54 | 74.8 |
| TTC14 (tetratricopeptide repeat domain 14) | 2 | -0.143 | 79 | -0.248 | 94.3 |
| TTC14 (tetratricopeptide repeat domain 14) | 3 | 0.692 | 95.6 | 1.29 | 76 |
| PNLIP (pancreatic lipase) | 1 | -0.407 | 73.8 | -0.368 | 90.8 |
| PNLIP (pancreatic lipase) | 2 | 0.717 | 96.1 | 1.2 | 78.3 |
| PNLIP (pancreatic lipase) | 3 | -0.174 | 78.4 | -0.119 | 90.4 |
| GAS6-AS1 (GAS6 antisense RNA 1) | 1 | -0.271 | 76.5 | -0.109 | 88 |
| GAS6-AS1 (GAS6 antisense RNA 1) | 2 | 0.33 | 88.4 | 0.927 | 77.4 |
| GAS6-AS1 (GAS6 antisense RNA 1) | 3 | 2.32 | 128 | 2.18 | 80.5 |
| OR11G2 (olfactory receptor family 11 subfamily G member 2) | 1 | 0.992 | 102 | 0.907 | 89.4 |
| OR11G2 (olfactory receptor family 11 subfamily G member 2) | 2 | -0.418 | 73.6 | -0.254 | 87.9 |
| OR11G2 (olfactory receptor family 11 subfamily G member 2) | 3 | 2.22 | 126 | 1.44 | 96.3 |
| ACO2 (aconitase 2) | 1 | -0.866 | 64.7 | -0.516 | 82.8 |
| ACO2 (aconitase 2) | 2 | 0.0714 | 83.3 | -0.369 | 103 |
| ACO2 (aconitase 2) | 3 | 1.51 | 112 | 1.94 | 75.1 |
| LARP7 (La ribonucleoprotein 7, transcriptional regulator) | 1 | -0.0252 | 81.4 | -0.812 | 113 |
| LARP7 (La ribonucleoprotein 7, transcriptional regulator) | 2 | 1.52 | 112 | 1.3 | 88.9 |
| LARP7 (La ribonucleoprotein 7, transcriptional regulator) | 3 | 0.0139 | 82.2 | -0.305 | 99.5 |
| ZNF490 (zinc finger protein 490) | 1 | -0.381 | 74.3 | -0.0478 | 84.1 |
| ZNF490 (zinc finger protein 490) | 2 | 1.85 | 119 | 1.49 | 89.6 |
| ZNF490 (zinc finger protein 490) | 3 | 0.0297 | 82.5 | -0.264 | 98.8 |

Records listed above called active, once more:
| gene | reagent | total luciferase, z-score | total luciferase, % of control | luciferase per cell, z-score | viable cells, % of control |
| --- | --- | --- | --- | --- | --- |
| NAA16 (N-alpha-acetyltransferase 16, NatA auxiliary subunit) | 1 | 4.96 (active) | 181 | 3.26 | 85.5 |
